Results from PubChem BioAssay AID2685 (National Center for Advancing Translational Sciences (NCATS), 2010).
Screen size: about 320,000 compounds; about 2,100 (0.66%) were called active. Inconclusive results, whose numbers are uncertain, are shown with a selection of clear calls. Calls come from the whole dose curve; as a rule, active = well fitted inhibition curve with a large enough effect in the signal ratio, with a control signal flat (not every such curve was filed as active); inconclusive = small, poorly fitted or top-dose-only effect, or effect the other way, or a change in a side signal; inactive = flat fitted curve, though single readings scatter; the % refers to the signal ratio. Potencies beside an inconclusive call are fits to weak or partial responses and may not hold up.

Assay: qHTS Assay for Lipid Storage Modulators in Drosophila S3 Cells
Conditions: BODIPY lipid droplet fluorescence, 18-24 h, cells fed with added oleic acid; lipid storage change, negative = inhibition: at 46.1 µM (top of the series) unless noted
In short: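 Laser-scanning cytometry quantifies lipid droplet accumulation (500–530 nm total intensity; droplet/cell object ratio) in oleic acid-fed (400 uM added) Drosophila S3 cells treated with a concentration series. 20 uM Triacsin C defined 100% inhibition.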
% is set by controls: 0 for no effect and ±100 for the full control effect; potency is the fitted concentration of half-maximal effect.

SMILES	Potency	lipid storage change, negative = inhibition
Cc1ccc(NC(=O)Nc2cccc(Cl)c2)c(C(=O)O)c1	inconclusive: 29.1 µM [falling, single point]	–
Cn1cc([N+](=O)[O-])c(C(=O)NCc2ccco2)n1	–	inconclusive: 42.7%
CC(C)NC(=O)CCCOc1ccc(Cl)cc1Cl	–	inactive
O=C(CSc1nnc(-c2cccs2)n1-c1ccccc1)NCC1CCCO1 (configuration not stated)	–	inconclusive: 5.24%
COc1ccc(NC(=S)NC(NC(=O)C(C)C)C(Cl)(Cl)Cl)c([N+](=O)[O-])c1 (configuration not stated)	inconclusive: 16.4 µM [falling, partial curve, poor fit]	–
Cc1nn(C)c(Cl)c1NC(=O)OCc1ccc(Cl)cc1Cl	–	inconclusive: -25.1%
Cc1ccc(C)c(CSc2nnc(-c3ccccn3)n2N)c1	–	inconclusive: -67.7%
CC(C)C(=O)N1CCN(c2ccccc2NC(=S)NC(=O)c2cccs2)CC1	–	inconclusive: 23.7%
O=C(NCc1ccc2c(c1)OCO2)c1ccc2c(c1)N(Cc1c(F)cccc1Cl)C(=O)CS2	–	inconclusive: -8.75%
CCCc1nnc(SCC(=O)Nc2cccc(C(F)(F)F)c2)o1	inconclusive: 0.116 µM [activator, full curve, poor fit]	–
CCCCSc1nc(C)c(CC(=O)O)c(=O)[nH]1	inconclusive: 2.06 µM [falling, partial curve]	–
O=C(N(c1ccccn1)c1ccccn1)C12CC3CC(CC(C3)C1)C2	–	inconclusive: -10.5%
CCOc1ccc(-c2nnc(-c3cccnc3)o2)cc1OCC	–	inconclusive: 10.9%
COc1ccc(OC)c(NC(=O)c2cc(S(=O)(=O)N(C)C)ccc2N2CCCC2)c1	–	inconclusive: -40.9%
Cc1cccc(C)c1NC(=S)N1CCC(N(C)CC2CCCO2)CC1 (configuration not stated)	active: 20.6 µM	–
O=C(NC1CCSC1=O)C1CC(=O)N(c2ccc(F)cc2)C1 (configuration not stated)	inconclusive: 29.1 µM [activator, partial curve]	–
O=C(Nc1ccc(C(=O)c2ccc(C(=O)O)c(C(=O)O)c2)cc1)c1ccccc1	–	inconclusive: -125%
CCn1c(=O)n(CC)c2cc(S(N)(=O)=O)c(C)cc21	–	inconclusive: -15.2%
COc1ccc(C(C#N)Nc2ccc(C)cc2)cc1 (configuration not stated)	inconclusive: 29.1 µM [falling, single point]	–
Cc1c(NC(=O)Oc2ccccc2)sc(=S)n1C	inconclusive: 0.231 µM [falling, full curve, poor fit]	–
CC1Cc2ccccc2N1C(=O)CN1C(=O)CN(C)C(=O)c2ccccc21 (configuration not stated)	–	inconclusive: 30.8%
CN1CCN(c2oc(Cc3cccc4ccccc34)nc2C#N)CC1	inconclusive: 20.6 µM [activator, single point]	–
O=C(CN1C(=O)c2ccccc2S1(=O)=O)N1CCN(c2ccc(F)cc2)CC1	inconclusive: 6.51 µM [activator, partial curve]	–
CC(C(=O)Nc1nncs1)N1C(=O)C2C3C=CC(C3)C2C1=O (configuration not stated)	–	inconclusive: -23.4%
Cc1cc(C)n(CCNC(=O)C2CCC(=O)N(Cc3ccc(Cl)cc3)C2)n1 (configuration not stated)	–	inconclusive: 43.3%
Cc1ccc(N(CC(=O)O)S(=O)(=O)c2cccc3nonc23)cc1	–	inconclusive: 1.71%

SMILES	Potency	lipid storage change, negative = inhibition
N#C/C(=N\Nc1cccc(C(F)(F)F)c1)C(=O)c1csc(-c2cccnc2)n1	–	inconclusive: -34.8%
C=Cc1ccc(N=Cc2c(O)ccc3ccccc23)cc1	inconclusive: 3.66 µM [falling, full curve]	–
COc1cccc(NC(=O)C2CCCN2C(=O)Nc2ccccc2)c1 (configuration not stated)	inconclusive: 4.61 µM [activator, full curve, poor fit]	–
COc1cc(CCNc2ccc3nnc(-c4ccccc4)n3n2)cc(OC)c1OC	–	inconclusive: 10.6%
Cc1noc(C)c1S(=O)(=O)NC1CCN(Cc2ccccc2)CC1	–	inconclusive: -31%
O=C(O)c1ccc(N/N=C/c2ccc(OC(=O)c3ccccc3Cl)cc2)cc1	–	inconclusive: 40.9%
O=C(/C=C/c1ccco1)Nc1ccccc1N1CCCCC1	–	inconclusive: 32.6%
Cc1occc1C(=O)N1CCCC(N2CCN(c3ccccc3F)CC2)C1 (configuration not stated)	–	inconclusive: 10.3%
COc1ccc(N2C3=[N+](CC2(C)O)c2ccccc2CC3)cc1 (configuration not stated)	inconclusive: 29.1 µM [activator, single point]	–
CC(C)(C)c1ccc(OCC(=O)N2CCCCCC2)c(Br)c1	–	inconclusive: 64.1%
Cc1cc(C)n(-c2nc3sc4c(c3c(=O)[nH]2)CCCC4)n1	–	inconclusive: -15.9%
O=C(Cn1ncc(Cl)c(Cl)c1=O)N1CCOCC1	–	inconclusive: -17.5%
CCc1ccc(NC(=S)NC(=O)c2c(-c3ccccc3Cl)noc2C)cc1	–	inconclusive: 23.8%
CC(=O)N(c1ccc2oc(=O)sc2c1)S(=O)(=O)c1cccc2cccnc12	inconclusive: 0.13 µM [activator, partial curve, poor fit]	–
COc1ccc(/C=C2\SC(=S)N(CCCC(=O)Nc3ccccn3)C2=O)cc1OC	inconclusive: 3.26 µM [activator, partial curve]	–
O/N=C1/CCSc2ccccc21	–	inconclusive: -1.48%
O=C(NC1CCCC1)C1CC1c1ccccc1 (configuration not stated)	–	inconclusive: 93.5%
CCOc1ccc(N2CC(C(=O)Nc3ccc(OC)c(S(=O)(=O)N4CCCCC4)c3)CC2=O)cc1 (configuration not stated)	–	inconclusive: 18.6%
COc1ccc(Cl)cc1NC(=O)c1oc(C)nc1C	inconclusive: 1.16 µM [rising, full curve]	–
CN(C)/N=C/c1ccc(OS(=O)(=O)c2ccccc2)cc1	inconclusive: 29.1 µM [activator, single point]	–
CCOC(=O)N1CCC(NC(=O)Cn2cccc2C(=O)c2ccccc2C)CC1	–	inconclusive: 37.3%
O=C(O)C1CC(=O)N(CCc2c[nH]c3ccccc23)C1 (configuration not stated)	–	inconclusive: -7.86%
O=S(=O)(c1ccc2c(c1)CCCN2)N1CCCC2CCCCC21 (configuration not stated)	inconclusive: 0.13 µM [falling, full curve, poor fit]	–
O=C(Nc1cccc(-n2cnnn2)c1)c1cccnc1	–	inconclusive: -18%
COc1ccccc1-n1c(CNC(=O)c2ccco2)nnc1SCC(=O)Nc1cc(C)ccc1C	–	inconclusive: 9.11%
CNC(=O)c1ccc(CNC(=O)OCC(F)(F)F)cc1	–	inconclusive: -5.32%

SMILES	Potency	lipid storage change, negative = inhibition
c1ccc(-c2cc3c(N4CCOCC4)ncnc3s2)cc1	–	inconclusive: 13.6%
N#CC1=C(N)OC2=C(CCc3ccccc32)C1c1ccccc1 (configuration not stated)	–	inconclusive: 33.5%
COc1ccccc1NC(=O)c1ccccc1Nc1ccccc1	inconclusive: 0.58 µM [rising, single point]	–
CC(=O)c1ccc(NC(=O)c2ccc(S(=O)(=O)N3CCCC3)cc2)cc1	inconclusive: 2.31 µM [activator, partial curve, poor fit]	–
CCC(NC(C)C)C(O)c1ccc(O)c2[nH]c(=O)ccc12 (configuration not stated)	–	inconclusive: -19.2%
COc1ccccc1CNC(=O)CCNS(=O)(=O)c1ccc2[nH]c(=O)oc2c1	–	inconclusive: 233%
COc1cc(OC)c(NC(=O)c2ccoc2C)cc1Cl	inconclusive: 16.4 µM [activator, partial curve, poor fit]	–
CC[C@@]12C(=O)N(c3cccc(F)c3)C(=O)N1[C@H](c1cccc(C)c1)[C@@H]1C(=O)N(Cc3ccccc3)C(=O)[C@@H]12	inconclusive: 3.26 µM [activator, partial curve]	–
COc1ccc([N+](=O)[O-])cc1NC(=O)Cc1ccccc1Cl	–	inconclusive: 26.7%
O=C(NC1CCCCC1)c1cc(-c2ccc(Cl)cc2)on1	–	inconclusive: -7.08%
Cc1cc(C)cc(NC(=O)CSc2nncn2-c2ccccn2)c1	–	inconclusive: 15.7%
Cc1c(NC(=S)NC(=O)C2CCCCC2)c(=O)n(-c2ccccc2)n1C	–	inconclusive: -28.1%
O=C(Nc1ccc2nc(-c3cccs3)c(-c3cccs3)nc2c1)N1CCOCC1	inconclusive: 2.06 µM [rising, partial curve]	–
COc1ccc(Cl)cc1NC(=O)COC(=O)C1CC1	–	inconclusive: 10.2%
Cc1ccc2cc(C)c3nnc(SCC(=O)NCc4ccco4)n3c2c1	–	inconclusive: -11%
Cc1ccc(NC(=O)C2SC(=Nc3ccccc3)C(C(=O)Nc3ccc(Cl)cc3)=C2N)cc1 (configuration not stated)	–	inconclusive: 3.65%
O=C(N/N=C/c1ccccn1)c1cc(-c2ccc(Br)s2)[nH]n1	–	inconclusive: -66.4%
Cc1cccc(C)c1Nc1nnc(SCC(=O)NC2CCS(=O)(=O)C2)s1 (configuration not stated)	–	inconclusive: -18.7%
O=C(CCn1c(=O)oc2ccccc21)N1CCN(C(c2ccccc2)c2ccccc2)CC1	–	inconclusive: 14.9%
Cc1ccc(CN2CCSc3ccc(C(=O)N4CCOCC4)cc32)cc1	inconclusive: 23.1 µM [falling, single point]	–
Cc1cc(/C=N/O)c(C)n1-c1ccccc1	–	inconclusive: 27.8%
COc1ccc(N2CCN(C(=O)CSc3nnc4c(C)cc5cc(C)ccc5n34)CC2)cc1	inconclusive: 0.82 µM [activator, full curve, poor fit]	–
O=C1OC(c2ccccc2)=C/C1=C/N1CCCCC1	–	inconclusive: -7.98%
CCCNC(=O)NC(=O)COC(=O)c1ccc(OC)c(S(=O)(=O)N2CCCc3ccccc32)c1	–	inconclusive: -68.3%
CCCC(=O)NC(NC(=S)Nc1c(C)n(C)n(-c2ccccc2)c1=O)C(Cl)(Cl)Cl (configuration not stated)	–	inconclusive: 4.99%

Among those listed so far, 4 contain a cyano group:
SMILES	Potency	lipid storage change, negative = inhibition
COc1ccc(C(C#N)Nc2ccc(C)cc2)cc1 (configuration not stated)	inconclusive: 29.1 µM [falling, single point]	–
CN1CCN(c2oc(Cc3cccc4ccccc34)nc2C#N)CC1	inconclusive: 20.6 µM [activator, single point]	–
N#C/C(=N\Nc1cccc(C(F)(F)F)c1)C(=O)c1csc(-c2cccnc2)n1	–	inconclusive: -34.8%
N#CC1=C(N)OC2=C(CCc3ccccc32)C1c1ccccc1 (configuration not stated)	–	inconclusive: 33.5%
